Reference: the supplement of paper PMC10689618
Counter-ions that a name gives are not always drawn. The list shows a part of the results. Repeats are few or missing, and single values can be far off.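 Primary human fetal astrocytes engulfed labelled rat cortical synaptosomes, measured as a red/green ratio corrected for calcein live-cell signal and scaled to the plate median. Toxicity meant calcein falling over 30%; decreased phagocytosis meant below 70% of median above 5 µM.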

What was measured:
Human fetal astrocytes [1] = assay: loss of total cells relative to no-compound high-control median (toxicity); higher = more toxic (fewer cells); details: 24 h
Human fetal astrocytes [2] = assay: synaptosome phagocytosis (pHrodo/calcein intensity ratio) relative to plate median of data wells; higher = more phagocytosis; details: 24 h

Row | Structure (SMILES) | loss of total cells (Human fetal astrocytes [1]; 1.39 µM) [%] | loss of total cells (Human fetal astrocytes [1]; 2.78 µM) [%] | loss of total cells (Human fetal astrocytes [1]; 5.56 µM) [%] | loss of total cells (Human fetal astrocytes [1]; 11.11 µM) [%] | loss of total cells (Human fetal astrocytes [1]; 22.22 µM) [%] | synaptosome phagocytosis (Human fetal astrocytes [2]; 1.39 µM) [%] | synaptosome phagocytosis (Human fetal astrocytes [2]; 2.78 µM) [%] | synaptosome phagocytosis (Human fetal astrocytes [2]; 5.56 µM) [%] | synaptosome phagocytosis (Human fetal astrocytes [2]; 11.11 µM) [%] | synaptosome phagocytosis (Human fetal astrocytes [2]; 22.22 µM) [%]
1 | C[C@H](N)CN1CCc2ccc(Br)cc21 [VER-3323 hemifumarate salt] | -2.4 | 12.2 | 0.5 | 12.4 | 14 | 89.3 | 92.5 | 72 | 71.7 | 55.4
2 | CNCCc1c[nH]c2ccc(O)cc12 [N-omega-Methyl-5-hydroxytryptamine oxalate salt] | -10.9 | 2.3 | 12.7 | 0 | 15.9 | 95.1 | 146 | 158 | 123 | 106
3 | COc1cc([C@@H]2c3cc4c(cc3[C@H](O)[C@H]3COC(=O)[C@H]23)OCO4)cc(OC)c1OC [Podophyllotoxin] | 0.5 | -2.3 | -0.5 | -9.5 | 15.9 | 66.3 | 103 | 91.3 | 71.7 | 103
4 | Clc1cccc(N2CCNCC2)c1 [1-(3-Chlorophenyl)piperazine dihydrochloride] | -26.1 | -10.8 | -5.1 | 2.2 | -1.9 | 92.1 | 109 | 119 | 136 | 102
5 | CNCCc1ccc(O)c(O)c1 [N-Methyldopamine hydrochloride] | -2.1 | -5.1 | -14 | -1.3 | 18.4 | 109 | 94.8 | 91.8 | 86 | 74.5
6 | Clc1cc(I)cc(Cl)c1NC1=NCCN1 [p-Iodoclonidine hydrochloride] | -12.8 | 8.6 | 19.2 | 17.1 | 13.1 | 69.1 | 88.9 | 134 | 120 | 154
7 | CCCN1CCO[C@@H]2c3cc(O)ccc3OC[C@H]21 (racemic) [(±)-PD 128,907 hydrochloride] | 4 | -31.4 | -13.5 | -15.7 | -43.6 | 111 | 75.9 | 94.7 | 92.9 | 97.4
8 | O=C1NCN(c2ccccc2)C12CCN(CC1COc3ccccc3O1)CC2 (stereo not given) [Spiroxatrine] | -11.5 | -21.3 | 1.7 | -10.3 | -9.1 | 104 | 96.9 | 101 | 104 | 100
9 | C[N+]1(C)CCOC(O)(c2ccc(-c3ccc(C4(O)C[N+](C)(C)CCO4)cc3)cc2)C1 (stereo not given) [Hemicholinium-3] | 1.3 | 0.9 | 9.1 | -5.8 | 4 | 99.5 | 88.2 | 89.3 | 95.9 | 99.4
10 | C[C@]12CC[C@H](OS(=O)(=O)O)CC1=CC[C@@H]1[C@@H]2CC[C@]2(C)C(=O)CC[C@@H]12 [Dehydroisoandrosterone 3-sulfate sodium] | 6.3 | -12 | -3.3 | 5.8 | -11.2 | 119 | 105 | 115 | 131 | 103
11 | N#C/C(=C\c1ccc(O)c(O)c1)C(N)=S [Tyrphostin 47] | -10.9 | -18.9 | -1.7 | -0.4 | -4.9 | 103 | 126 | 122 | 110 | 115
12 | N=C(N)NN [Aminoguanidine hemisulfate] | -26.8 | -13.2 | -10.6 | -9.4 | 7.9 | 99.3 | 90.8 | 90.7 | 94.4 | 113
13 | N[C@H](C(=O)O)c1cc(O)no1 (racemic) [(±)-Ibotenic acid] | 10 | 27.6 | -5.2 | 18.1 | 10.3 | 126 | 146 | 96.2 | 113 | 133
14 | COc1cc(C=C(C#N)C#N)cc(O)c1O [Tyrphostin AG 34] | -17.7 | -24.9 | -4.5 | -27.2 | -42 | 74.4 | 101 | 103 | 129 | 109
15 | NC1CCc2cc(O)c(O)cc2C1 (stereo not given) [6,7-ADTN hydrobromide] | 6.3 | -16.2 | 4.1 | 5.8 | 4.8 | 115 | 108 | 105 | 102 | 104
16 | N[C@@H]1C[C@H]1c1ccccc1 [Tranylcypromine hydrochloride] | -16.5 | -9.3 | -11.8 | -13.4 | -0.8 | 81.5 | 98.9 | 100 | 89.9 | 109
17 | CC(C)NC(C)Cc1ccc(I)cc1 (stereo not given) [Iofetamine hydrochloride] | 8.1 | 3.2 | 15.5 | 8.6 | 12.1 | 92.8 | 104 | 93.4 | 100 | 120
18 | CN1[C@@H]2CC[C@H]1C[C@@H](OC(c1ccccc1)c1ccccc1N)C2 (stereo not given in full) [Aminobenztropine] | -17.2 | -17.1 | 0.5 | -11.2 | -6.4 | 85.3 | 86.4 | 56.6 | 73.2 | 73
19 | Cn1cnc(CCN)c1 [1-Methylhistamine dihydrochloride] | -16.6 | 16.7 | 12.7 | 22.9 | 18.7 | 102 | 73 | 128 | 104 | 109

Row | Structure (SMILES) | loss of total cells (Human fetal astrocytes [1]; 1.39 µM) [%] | loss of total cells (Human fetal astrocytes [1]; 2.78 µM) [%] | loss of total cells (Human fetal astrocytes [1]; 5.56 µM) [%] | loss of total cells (Human fetal astrocytes [1]; 11.11 µM) [%] | loss of total cells (Human fetal astrocytes [1]; 22.22 µM) [%] | synaptosome phagocytosis (Human fetal astrocytes [2]; 1.39 µM) [%] | synaptosome phagocytosis (Human fetal astrocytes [2]; 2.78 µM) [%] | synaptosome phagocytosis (Human fetal astrocytes [2]; 5.56 µM) [%] | synaptosome phagocytosis (Human fetal astrocytes [2]; 11.11 µM) [%] | synaptosome phagocytosis (Human fetal astrocytes [2]; 22.22 µM) [%]
20 | CCNC(=O)[C@H]1O[C@@H](n2cnc3c(N)ncnc32)[C@H](O)[C@@H]1O [5'-N-Ethylcarboxamidoadenosine] | -12.1 | -29.9 | -20.6 | -23.8 | 0 | 95.5 | 93.7 | 90.8 | 96 | 90.3
21 | N.N.[Cl][Pt][Cl] [Cisplatin] | -17.5 | -1.4 | 2.3 | 9.5 | 22.4 | 103 | 117 | 106 | 79.7 | 123
22 | CC(C)NP(=O)(NC(C)C)OP(=O)(NC(C)C)NC(C)C [Tetraisopropyl pyrophosphoramide] | -19.6 | -7.5 | -3.4 | -11.9 | -1.6 | 98 | 122 | 111 | 104 | 102
23 | NCCc1ccc(S(=O)(=O)F)cc1 [4-(2-Aminoethyl)benzenesulfonyl fluoride hydrochloride] | -6.6 | -9.3 | -26.3 | 0.4 | -5.6 | 102 | 125 | 82.1 | 112 | 119
24 | CN1CC[C@]2(CCN3CCc4c(oc5ccccc45)[C@@H]3C2)N(C)C1=O | -14.7 | -5.9 | -4.2 | 4.8 | -14 | 108 | 93 | 74.5 | 90.2 | 106
25 | Clc1ccc(N2CCN(Cc3c[nH]c4ncccc34)CC2)cc1 [L-745,870 hydrochloride] | -1.4 | 21.3 | -6.1 | 9.5 | 21.5 | 94.2 | 114 | 110 | 52.7 | 56.2
26 | N[C@@H](CCl)C(=O)O [beta-Chloro-L-alanine hydrochloride] | -13.6 | -8.4 | -1.4 | -15.7 | -4.1 | 80.2 | 88.9 | 99.9 | 122 | 90.5
27 | C#C[C@]1(O)CC[C@H]2[C@@H]3CCC4=Cc5nc6nc7ccccc7n6cc5C[C@]4(C)[C@H]3CC[C@@]21C | -30.7 | -14.7 | -0.6 | 5.7 | -23.9 | 86.7 | 67.5 | 61.8 | 77.8 | 73.6
28 | C=CCN1CC[C@]23CCCC[C@H]2[C@H]1Cc1ccc(O)cc13 [Levallorphan tartrate] | -10.9 | 5.9 | 9.9 | -4.8 | 11.2 | 97.2 | 80.9 | 116 | 86.6 | 95
29 | CN1C2CCC1CC(OC(c1ccccc1)c1ccc(Cl)cc1)C2 (stereo not drawn) [4'-Chloro-3-alpha-(diphenylmethoxy)tropane hydrochloride] | 1.3 | -7.7 | 6.6 | 12.1 | 23.2 | 86.5 | 69.9 | 86 | 96.8 | 97.6
30 | Oc1ccc2c3c1O[C@H]1c4oc5ccccc5c4C[C@@]4(O)[C@@H](C2)N(CC2CC2)CC[C@]314 [Naltriben methanesulfonate] | -13.7 | 11.3 | 5.2 | 10.5 | 10.3 | 92.4 | 117 | 81.2 | 86.5 | 102
31 | COc1ccc2c(c1O)-c1cccc3c1[C@@H](C2)N(C)CC3 [R(-)-Apocodeine hydrochloride] | 12.1 | -10.3 | 1.6 | -29.1 | -8.8 | 111 | 105 | 122 | 135 | 96.5
32 | CC(C)C1CNC(C(=O)O)C1CC(=O)O (stereo not given) [Dihydrokainic acid] | 5.4 | -17.9 | -4.9 | -4.9 | -0.8 | 102 | 98.4 | 131 | 120 | 90.2
33 | NC(=O)CI [Iodoacetamide] | -8.8 | -1.7 | -20.6 | -18.4 | 1.6 | 110 | 97.6 | 98.8 | 79.3 | 101
34 | C=CCN1CCC2(C)c3cc(O)ccc3CC1C2C (racemic) [(±)-N-Allylnormetazocine hydrochloride] | -22 | -14.7 | -15.2 | -13 | -0.4 | 78.8 | 65.3 | 90.3 | 73.5 | 93.4
35 | c1ccc(CCCN2CCN(CCOC(c3ccccc3)c3ccccc3)CC2)cc1 | -6.3 | 1.7 | 9.9 | 4.9 | 20.8 | 106 | 79.6 | 85.2 | 87.1 | 42.8
36 | CCCN1CCC[C@@H]2Cc3n[nH]cc3C[C@H]21 [(-)-Quinpirole hydrochloride] | -7.1 | -24.3 | 3.4 | -14.2 | -20.6 | 115 | 90.2 | 92.6 | 89.8 | 128
37 | CN[C@@H](C)[C@H](O)c1ccccc1 [(-)-Ephedrine hemisulfate] | 1.3 | -0.9 | 14.8 | 24.7 | 21.6 | 115 | 104 | 79.9 | 106 | 87.7
38 | O=C(O)[C@@H]1CCN1 [L-azetidine-2-carboxylic acid] | -3.3 | -6.9 | -17.1 | -5.8 | 13.2 | 134 | 107 | 106 | 124 | 136

Entries 28 through 29 from above:
Row | Structure (SMILES) | loss of total cells (Human fetal astrocytes [1]; 1.39 µM) [%] | loss of total cells (Human fetal astrocytes [1]; 2.78 µM) [%] | loss of total cells (Human fetal astrocytes [1]; 5.56 µM) [%] | loss of total cells (Human fetal astrocytes [1]; 11.11 µM) [%] | loss of total cells (Human fetal astrocytes [1]; 22.22 µM) [%] | synaptosome phagocytosis (Human fetal astrocytes [2]; 1.39 µM) [%] | synaptosome phagocytosis (Human fetal astrocytes [2]; 2.78 µM) [%] | synaptosome phagocytosis (Human fetal astrocytes [2]; 5.56 µM) [%] | synaptosome phagocytosis (Human fetal astrocytes [2]; 11.11 µM) [%] | synaptosome phagocytosis (Human fetal astrocytes [2]; 22.22 µM) [%]
28 | C=CCN1CC[C@]23CCCC[C@H]2[C@H]1Cc1ccc(O)cc13 [Levallorphan tartrate] | -10.9 | 5.9 | 9.9 | -4.8 | 11.2 | 97.2 | 80.9 | 116 | 86.6 | 95
29 | CN1C2CCC1CC(OC(c1ccccc1)c1ccc(Cl)cc1)C2 (stereo not drawn) [4'-Chloro-3-alpha-(diphenylmethoxy)tropane hydrochloride] | 1.3 | -7.7 | 6.6 | 12.1 | 23.2 | 86.5 | 69.9 | 86 | 96.8 | 97.6
